Test system: HaCaT cells
Test: MTT cell viability assay on HaCaT keratinocytes
Assay type: cell-based, human
Details: 24 h pre-treatment (FIG. 8A)
Method: Cell culture, pretreatment and stimulation. The immortalized human keratinocyte cell line HaCaT, fibroblast MRC5 were grown in Dulbecco's modified Eagle's medium-Glutamax-I (DMEM) with 1 mM sodium pyruvate. […] DMEM and RPMI were supplemented with 0.1% and 10% heat-inactivated fetal calf serum (Invitrogen), and an antibiotic/antimycotic solution (10 U/ml Pencillin, 10 μg/ml Streptomycin, 0.25 μg/ml Amphoterin) at 37° C. in humidified atmosphere containing 5% CO2 as described (Life Technologie). Primary human keratinocytes (NHDK) and fibroblast (HDF) were grown in the KGM-Gold and in FGM-2 Bullet Kit, respectively, as described by the manufacturer (Lonza). The immortalized cell lines were routinely tested to assess the absence of Mycoplasma infection. Cells, cultivated in 6- or 96-well polystyrene plates, were pretreated with appropriate molecule solution for 1 to 48 h at 37° C. in the dark at the appropriate concentration. Then, for stimulation, cells were incubated for 15 min to 24 h with the P. acnes suspension adjusted at the appropriate concentration at 37° C. in 5% CO2. For experiences using an in vitro model of psoriasis, the primary human keratinocytes (NHDK) were grown in culture medium for 24 hours.
Cell viability assays. […] After thorough mixing, the absorbance was measured at 540 nm.

CCC[C@@H]1C[C@@H](C(=O)N[C@@H]([C@H]2O[C@H](SC)[C@H](O)[C@@H](O)[C@H]2O)[C@H](C)Cl)N(C)C1 [clindamycine]
toxicity at 6.25 μM, in words (MTT): no toxicity

Source: patent publication US11617748B2, “Meclozine derivatives and diclazuril derivatives for use in the prevention and/or the treatment of disorders associated to the inflammation induced by P. acnes” (priority 2016, dated 2023)
